Paper PMC3979106 (Structure(London, England:1993), 2014)
Results are given in words; binding and its absence hold for the method and conditions named.

Sequences of proteins named here, by UniProt entry; tags and fusion partners are left off. A change or cut given only in a name is not applied to a line headed by its entry. A line that says so, or that is headed by a name, gives the form on record, which may keep a tag or linker. Residues count along the entry.
UniProt P62256: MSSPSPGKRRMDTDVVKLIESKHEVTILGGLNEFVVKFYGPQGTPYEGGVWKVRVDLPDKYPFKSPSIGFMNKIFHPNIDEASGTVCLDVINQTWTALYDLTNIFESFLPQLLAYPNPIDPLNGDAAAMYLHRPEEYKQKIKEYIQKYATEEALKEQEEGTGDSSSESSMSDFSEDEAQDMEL
UniProt P61077, residues 2-147: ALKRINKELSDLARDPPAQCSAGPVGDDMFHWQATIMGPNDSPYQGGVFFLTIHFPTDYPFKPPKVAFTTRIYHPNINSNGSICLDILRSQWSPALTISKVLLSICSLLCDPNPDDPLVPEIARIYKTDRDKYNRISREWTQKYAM
UniProt P49427: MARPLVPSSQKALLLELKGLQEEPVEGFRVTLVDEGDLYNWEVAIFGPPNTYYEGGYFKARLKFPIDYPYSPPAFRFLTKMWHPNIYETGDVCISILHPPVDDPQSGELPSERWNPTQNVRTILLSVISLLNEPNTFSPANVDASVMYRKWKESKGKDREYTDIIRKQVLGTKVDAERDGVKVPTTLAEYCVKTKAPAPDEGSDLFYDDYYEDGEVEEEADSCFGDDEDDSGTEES
UniProt P61086: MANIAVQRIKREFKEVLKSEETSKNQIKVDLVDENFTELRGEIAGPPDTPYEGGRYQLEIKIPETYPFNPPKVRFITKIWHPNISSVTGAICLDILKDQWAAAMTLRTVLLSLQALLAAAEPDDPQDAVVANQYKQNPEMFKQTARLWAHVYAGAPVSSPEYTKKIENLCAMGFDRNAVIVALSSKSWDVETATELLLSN
UniProt Q9NPD8: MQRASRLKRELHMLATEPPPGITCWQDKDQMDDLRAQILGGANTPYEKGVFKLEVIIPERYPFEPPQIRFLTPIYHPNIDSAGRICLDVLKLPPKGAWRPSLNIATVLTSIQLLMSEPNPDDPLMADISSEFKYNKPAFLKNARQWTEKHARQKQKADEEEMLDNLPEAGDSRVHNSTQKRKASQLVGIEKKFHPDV
Human Ube2T Arg60Glu (Q9NPD8, form named): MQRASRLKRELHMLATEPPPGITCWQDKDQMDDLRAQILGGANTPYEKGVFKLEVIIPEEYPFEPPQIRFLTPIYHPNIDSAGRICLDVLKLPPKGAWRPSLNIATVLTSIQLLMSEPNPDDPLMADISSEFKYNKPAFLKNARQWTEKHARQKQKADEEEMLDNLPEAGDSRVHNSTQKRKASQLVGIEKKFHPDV
UniProt O14933: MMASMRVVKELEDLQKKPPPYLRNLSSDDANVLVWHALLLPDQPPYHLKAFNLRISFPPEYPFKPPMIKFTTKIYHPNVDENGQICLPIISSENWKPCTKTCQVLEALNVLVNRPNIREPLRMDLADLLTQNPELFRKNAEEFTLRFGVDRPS
UniProt P63146: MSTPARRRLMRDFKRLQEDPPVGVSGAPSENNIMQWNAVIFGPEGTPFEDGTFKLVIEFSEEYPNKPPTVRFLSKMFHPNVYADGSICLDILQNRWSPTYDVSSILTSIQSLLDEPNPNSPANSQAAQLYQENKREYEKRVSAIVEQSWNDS

Experiments:
[1] = molecular target: T1, Human FANCL RING domain (residues 289–375) (human) (UniProt Q9NW38); experiment: condition: 80–100 μM of E2 with ∼140 μM FANCL RING domain; native gel or EMSA; native gel shift; ∼140 μM FANCL RING domain with 80–100 μM E2, 10 min on ice in 0.1 M NaCl, 0.1 M Tris pH 8, 250 μM TCEP; 4%–12% native PAGE; both purified
T1 sequence: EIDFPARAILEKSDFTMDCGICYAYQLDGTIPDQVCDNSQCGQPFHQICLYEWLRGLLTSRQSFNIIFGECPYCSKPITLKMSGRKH

[2] = molecular target: T1, Human FANCL RING domain (residues 289–375) (human); experiment: SEC; analytical size-exclusion chromatography, Superdex 75 10/300; RING domain and one E2 incubated 1 hr on ice in 0.1 M NaCl, 0.1 M Tris pH 8, 250 μM TCEP; complex read as a peak shift to the left; both purified
[3] = molecular target: T1, Human FANCL RING domain (residues 289–375) (human); experiment: condition: equimolar amounts of Ube2T, Ube2D3 and Ube2L3; SEC; analytical size-exclusion chromatography of FANCL RING domain incubated with an equimolar mix of Ube2T, Ube2D3 and Ube2L3; E2 bands of the shifted peak identified by SDS-PAGE and mass spectrometry; both purified

In the case of “Ube2H (from UniProt P62256 1-183) (enzyme)”, the binding [1] is reported as “no binding” and the binding [2] is reported as “no binding”.
With “Human Ube2D3 (UbcH5c) (from UniProt P61077 2-147) (enzyme)” the binding [1] was “no binding”, the binding [3] was “no binding” and the binding [2] was “no binding”.
For “Human Ube2R1 (from UniProt P49427 1-236) (enzyme)”, the binding [1] was “no binding” and the binding [2] was “no binding”.
With “Human Ube2K (from UniProt P61086 1-200) (enzyme)” the binding [1] was “no binding” and the binding [2] was “no binding”.
For “Human Ube2T Arg60Glu (from UniProt Q9NPD8 1-197) (enzyme)”, the binding [2] was “no binding”.
For “Ube2L6 (from UniProt O14933 1-153) (enzyme)”, the binding [1] was “no binding” and the binding [2] was “no binding”.
“Human Ube2B (from UniProt P63146 1-152) (enzyme)” was tested, and the binding [1] was “no binding” and the binding [2] was “no binding”.
